The other results are listed elsewhere or left out. Single values are uncertain, as repeats are few or missing.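 Imaging used 1,536-well plates; nuclei positive for cleaved PARP by antibody were divided by total DNA-stained nuclei to yield the apoptosis fraction. Doses for screening kept most cells viable, and cell lines differ markedly in resting and induced cleaved-PARP levels.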
system: MZ2-MEL; assay: cleaved PARP positive nuclei fraction relative to DMSO control; melanoma cells; higher = more apoptosis; settings: library dose: low library concentration; 72 h

Row | SMILES | cleaved PARP positive nuclei fraction
1 | C[C@@H](N)c1ccc(C(=O)Nc2ccnc3[nH]ccc23)cc1 + Cc1cc([N+](=O)[O-])ccc1NS(=O)(=O)c1cc(Cl)ccc1Cl [FH535] (first compound 0.4 µM, partner dose 1 µM) | 56.9%
2 | CS(=O)(=O)c1ccc(C(=O)Nc2ccc(Cl)c(-c3ccccn3)c2)c(Cl)c1 [vismodegib] + O=S(=O)(c1ccccc1)N(CC(F)(F)F)c1ccc(C(O)(C(F)(F)F)C(F)(F)F)cc1 [T0901317] (first compound 1 µM, partner dose 1.4 µM) | 88.1%
3 | CCN(CC)CCNC(=O)c1c(C)[nH]c(/C=C2\C(=O)Nc3ccc(F)cc32)c1C [sunitinib] + COc1cc(N2CCC(N3CCN(C)CC3)CC2)ccc1Nc1ncc(Cl)c(Nc2ccccc2S(=O)(=O)C(C)C)n1 [NVP-TAE684] (first compound 0.4 µM, partner dose 0.08 µM) | 106%
4 | CC1(C)CCC(c2ccc(Cl)cc2)=C(CN2CCN(c3ccc(C(=O)NS(=O)(=O)c4ccc(N[C@H](CCN5CCOCC5)CSc5ccccc5)c(S(=O)(=O)C(F)(F)F)c4)cc3)CC2)C1 + CC(C)CCN1c2nc(Nc3cc(F)c(O)c(F)c3)ncc2N(C)C(=O)C1C [BID1870] (first compound 0.4 µM, partner dose 0.2 µM) | 243%
5 | C[C@@H](N)c1ccc(C(=O)Nc2ccnc3[nH]ccc23)cc1 + CN(NC(=O)CC(=O)NN(C)C(=S)c1ccccc1)C(=S)c1ccccc1 [STA4783] (first compound 0.4 µM, partner dose 0.006 µM) | 290%
6 | NC1(c2ccc(-c3nc4ccn5c(=O)[nH]nc5c4cc3-c3ccccc3)cc2)CCC1 + COc1cc(N2CCC(N3CCN(C)CC3)CC2)ccc1Nc1ncc(Cl)c(Nc2ccccc2S(=O)(=O)C(C)C)n1 [NVP-TAE684] (first compound 0.4 µM, partner dose 0.08 µM) | 93.3%
7 | NC(=O)c1ccc(N(C(N)=O)c2c(F)cccc2F)nc1-c1ccc(F)cc1F + CCCCCCCCCCCC1=C(O)C(=O)C=C(O)C1=O [Embelin] (first compound 0.4 µM, partner dose 1.2 µM) | 103%
8 | CS(=O)(=O)c1ccc(C(=O)Nc2ccc(Cl)c(-c3ccccn3)c2)c(Cl)c1 [vismodegib] + NCC(=O)Nc1ccc(-n2nc(C(F)(F)F)cc2-c2ccc3c(ccc4ccccc43)c2)cc1 [OSU03012] (first compound 1 µM, partner dose 1 µM) | 109%
9 | NC1(c2ccc(-c3nc4ccn5c(=O)[nH]nc5c4cc3-c3ccccc3)cc2)CCC1 + O=S(=O)(c1ccccc1)N(CC(F)(F)F)c1ccc(C(O)(C(F)(F)F)C(F)(F)F)cc1 [T0901317] (first compound 0.4 µM, partner dose 1.4 µM) | 165%
10 | NC(=O)c1ccc(N(C(N)=O)c2c(F)cccc2F)nc1-c1ccc(F)cc1F + CC(C)(C)c1cnc(CSc2cnc(NC(=O)C3CCNCC3)s2)o1 [SNS-032] (first compound 0.4 µM, partner dose 0.01 µM) | 67.6%
11 | NC(=O)c1ccc(N(C(N)=O)c2c(F)cccc2F)nc1-c1ccc(F)cc1F + CO[C@@H]1[C@H](N(C)C(=O)c2ccccc2)C[C@H]2O[C@]1(C)n1c3ccccc3c3c4c(c5c6ccccc6n2c5c31)C(=O)NC4 [Midostaurin] (first compound 0.4 µM, partner dose 0.08 µM) | 146%
12 | Cn1cnc2c(F)c(Nc3ccc(Br)cc3Cl)c(C(=O)NOCCO)cc21 [selumetinib] + COc1cc2c(Oc3ccc4[nH]c(C)cc4c3F)ncnc2cc1OCCCN1CCCC1 [cediranib] (first compound 0.015 µM, partner dose 0.4 µM) | 146%
13 | C[C@]1(O)C[C@@H](c2nc(-c3ccc4ccc(-c5ccccc5)nc4c3)c3c(N)nccn32)C1 + c1cc(-c2cnn3cc(-c4ccc(OCCN5CCCCC5)cc4)cnc23)ccn1 [Dorsomorphin] (first compound 0.4 µM, partner dose 0.4 µM) | 64.9%
14 | CC1(C)CCC(c2ccc(Cl)cc2)=C(CN2CCN(c3ccc(C(=O)NS(=O)(=O)c4ccc(N[C@H](CCN5CCOCC5)CSc5ccccc5)c(S(=O)(=O)C(F)(F)F)c4)cc3)CC2)C1 + NCC(=O)Nc1ccc(-n2nc(C(F)(F)F)cc2-c2ccc3c(ccc4ccccc43)c2)cc1 [OSU03012] (first compound 0.4 µM, partner dose 1 µM) | 174%
15 | CN(c1ncccc1CNc1nc(Nc2ccc3c(c2)CC(=O)N3)ncc1C(F)(F)F)S(C)(=O)=O + O=C(O)c1ccc(-c2c[nH]c3ncc(-c4ccccc4)cc23)cc1C1CCCC1 [GSK650394] (first compound 0.08 µM, partner dose 0.16 µM) | 116%
16 | NC(=O)c1ccc(N(C(N)=O)c2c(F)cccc2F)nc1-c1ccc(F)cc1F + COc1ccc(-c2ccc3c(N4CCOCC4)nc(N4C[C@@H](C)O[C@@H](C)C4)nc3n2)cc1CO [KU0063794] (first compound 0.4 µM, partner dose 0.02 µM) | 119%
17 | NC1(c2ccc(-c3nc4ccn5c(=O)[nH]nc5c4cc3-c3ccccc3)cc2)CCC1 + CCCCCCCCCCCC1=C(O)C(=O)C=C(O)C1=O [Embelin] (first compound 0.4 µM, partner dose 1.2 µM) | 176%
18 | NC(=O)c1ccc(N(C(N)=O)c2c(F)cccc2F)nc1-c1ccc(F)cc1F + CC1(C)NC(=O)N(c2ccc([N+](=O)[O-])c(C(F)(F)F)c2)C1=O [nilutamide] (first compound 0.4 µM, partner dose 1 µM) | 135%
19 | COc1ccc(C2=N[C@@H](c3ccc(Cl)cc3)[C@@H](c3ccc(Cl)cc3)N2C(=O)N2CCNC(=O)C2)c(OC(C)C)c1 [Nutlin-3] + Cn1cncc1[C@@](N)(c1ccc(Cl)cc1)c1ccc2c(c1)c(-c1cccc(Cl)c1)cc(=O)n2C [tipifarnib] (first compound 0.1 µM, partner dose 0.01 µM) | 105%
20 | CN(c1ncccc1CNc1nc(Nc2ccc3c(c2)CC(=O)N3)ncc1C(F)(F)F)S(C)(=O)=O + Cc1cc([N+](=O)[O-])ccc1NS(=O)(=O)c1cc(Cl)ccc1Cl [FH535] (first compound 0.08 µM, partner dose 1 µM) | 165%
21 | CC(=O)O[C@@]12CO[C@@H]1C[C@H](O)[C@@]1(C)C(=O)[C@H](O)C3=C(C)[C@@H](OC(=O)[C@H](O)[C@@H](NC(=O)OC(C)(C)C)c4ccccc4)C[C@@](O)([C@@H](OC(=O)c4ccccc4)[C@H]21)C3(C)C [Docetaxel] + N#Cc1c(O)c2c(-c3ccc(-c4ccccc4O)cc3)csc2[nH]c1=O [A769662] (first compound 0.0001 µM, partner dose 2 µM) | 667%
22 | CC(=O)O[C@@]12CO[C@@H]1C[C@H](O)[C@@]1(C)C(=O)[C@H](O)C3=C(C)[C@@H](OC(=O)[C@H](O)[C@@H](NC(=O)OC(C)(C)C)c4ccccc4)C[C@@](O)([C@@H](OC(=O)c4ccccc4)[C@H]21)C3(C)C [Docetaxel] + COc1ccc2c(c1)CCC1C2CCC2(C)C(NCCCCCCN3C(=O)C=CC3=O)CCC12 [U73122] (first compound 0.0001 µM, partner dose 0.4 µM) | 369%
23 | CN(c1ncccc1CNc1nc(Nc2ccc3c(c2)CC(=O)N3)ncc1C(F)(F)F)S(C)(=O)=O + COc1cc(N2CCC(N3CCN(C)CC3)CC2)ccc1Nc1ncc(Cl)c(Nc2ccccc2S(=O)(=O)C(C)C)n1 [NVP-TAE684] (first compound 0.08 µM, partner dose 0.08 µM) | 230%
24 | NC(=O)c1ccc(N(C(N)=O)c2c(F)cccc2F)nc1-c1ccc(F)cc1F + O=C(O)c1ccc(-c2c[nH]c3ncc(-c4ccccc4)cc23)cc1C1CCCC1 [GSK650394] (first compound 0.4 µM, partner dose 0.16 µM) | 493%
25 | C[C@@H](N)c1ccc(C(=O)Nc2ccnc3[nH]ccc23)cc1 + Cc1cc(N2CCOCC2)cc2[nH]c(-c3c(NC[C@@H](O)c4cccc(Cl)c4)cc[nH]c3=O)nc12 [BMS536924] (first compound 0.4 µM, partner dose 0.2 µM) | 183%
26 | CC(=O)O[C@@]12CO[C@@H]1C[C@H](O)[C@@]1(C)C(=O)[C@H](O)C3=C(C)[C@@H](OC(=O)[C@H](O)[C@@H](NC(=O)OC(C)(C)C)c4ccccc4)C[C@@](O)([C@@H](OC(=O)c4ccccc4)[C@H]21)C3(C)C [Docetaxel] + COc1ccc(-c2ccc3c(N4CCOCC4)nc(N4C[C@@H](C)O[C@@H](C)C4)nc3n2)cc1CO [KU0063794] (first compound 0.0001 µM, partner dose 0.02 µM) | 930%
27 | CCCCCCCCc1ccc(CCC(N)(CO)CO)cc1 [fingolimod] + Cc1cc([N+](=O)[O-])ccc1NS(=O)(=O)c1cc(Cl)ccc1Cl [FH535] (first compound 2 µM, partner dose 1 µM) | 177%
28 | CCCCCCCCc1ccc(CCC(N)(CO)CO)cc1 [fingolimod] + Cn1cc(/C=C2\C(=O)Nc3cccnc32)c2ccccc21 [GW441756] (first compound 2 µM, partner dose 0.4 µM) | 113%
29 | Cn1cnc2c(F)c(Nc3ccc(Br)cc3Cl)c(C(=O)NOCCO)cc21 [selumetinib] + O=C(Nc1ccccc1)c1cc([N+](=O)[O-])ccc1Cl [GW9662] (first compound 0.015 µM, partner dose 2 µM) | 267%

Records 7 through 14, quoted:
Row | SMILES | cleaved PARP positive nuclei fraction
7 | NC(=O)c1ccc(N(C(N)=O)c2c(F)cccc2F)nc1-c1ccc(F)cc1F + CCCCCCCCCCCC1=C(O)C(=O)C=C(O)C1=O [Embelin] (first compound 0.4 µM, partner dose 1.2 µM) | 103%
8 | CS(=O)(=O)c1ccc(C(=O)Nc2ccc(Cl)c(-c3ccccn3)c2)c(Cl)c1 [vismodegib] + NCC(=O)Nc1ccc(-n2nc(C(F)(F)F)cc2-c2ccc3c(ccc4ccccc43)c2)cc1 [OSU03012] (first compound 1 µM, partner dose 1 µM) | 109%
9 | NC1(c2ccc(-c3nc4ccn5c(=O)[nH]nc5c4cc3-c3ccccc3)cc2)CCC1 + O=S(=O)(c1ccccc1)N(CC(F)(F)F)c1ccc(C(O)(C(F)(F)F)C(F)(F)F)cc1 [T0901317] (first compound 0.4 µM, partner dose 1.4 µM) | 165%
10 | NC(=O)c1ccc(N(C(N)=O)c2c(F)cccc2F)nc1-c1ccc(F)cc1F + CC(C)(C)c1cnc(CSc2cnc(NC(=O)C3CCNCC3)s2)o1 [SNS-032] (first compound 0.4 µM, partner dose 0.01 µM) | 67.6%
11 | NC(=O)c1ccc(N(C(N)=O)c2c(F)cccc2F)nc1-c1ccc(F)cc1F + CO[C@@H]1[C@H](N(C)C(=O)c2ccccc2)C[C@H]2O[C@]1(C)n1c3ccccc3c3c4c(c5c6ccccc6n2c5c31)C(=O)NC4 [Midostaurin] (first compound 0.4 µM, partner dose 0.08 µM) | 146%
12 | Cn1cnc2c(F)c(Nc3ccc(Br)cc3Cl)c(C(=O)NOCCO)cc21 [selumetinib] + COc1cc2c(Oc3ccc4[nH]c(C)cc4c3F)ncnc2cc1OCCCN1CCCC1 [cediranib] (first compound 0.015 µM, partner dose 0.4 µM) | 146%
13 | C[C@]1(O)C[C@@H](c2nc(-c3ccc4ccc(-c5ccccc5)nc4c3)c3c(N)nccn32)C1 + c1cc(-c2cnn3cc(-c4ccc(OCCN5CCCCC5)cc4)cnc23)ccn1 [Dorsomorphin] (first compound 0.4 µM, partner dose 0.4 µM) | 64.9%
14 | CC1(C)CCC(c2ccc(Cl)cc2)=C(CN2CCN(c3ccc(C(=O)NS(=O)(=O)c4ccc(N[C@H](CCN5CCOCC5)CSc5ccccc5)c(S(=O)(=O)C(F)(F)F)c4)cc3)CC2)C1 + NCC(=O)Nc1ccc(-n2nc(C(F)(F)F)cc2-c2ccc3c(ccc4ccccc43)c2)cc1 [OSU03012] (first compound 0.4 µM, partner dose 1 µM) | 174%
